# Experimental data reported in PubChem BioAssay AID463193 (University of Pittsburgh Molecular Library Screening Center, 2010).
# The other results are listed elsewhere or left out.
# Assay: autophagy modulators in MEF cells, primary screen, imaging, high-content, MEF GFP-LC3 (AID 463193);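 further: cell loss after 18 h compound exposure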
# Settings: MEF GFP-LC3 puncta imaging, measured here: cell loss, nuclei count, at 10 µM
row,Compound,toxicity
1,CP(=O)(Nc1cccc(Br)c1)Oc1ccccc1 (stereo unspecified),-4.2%
